# In PubChem BioAssay AID651768 (National Center for Advancing Translational Sciences (NCATS), 2012):
# Sequences of proteins named here, by UniProt entry; tags and fusion partners are left off.
# UniProt Q14191, whole entry, looked up: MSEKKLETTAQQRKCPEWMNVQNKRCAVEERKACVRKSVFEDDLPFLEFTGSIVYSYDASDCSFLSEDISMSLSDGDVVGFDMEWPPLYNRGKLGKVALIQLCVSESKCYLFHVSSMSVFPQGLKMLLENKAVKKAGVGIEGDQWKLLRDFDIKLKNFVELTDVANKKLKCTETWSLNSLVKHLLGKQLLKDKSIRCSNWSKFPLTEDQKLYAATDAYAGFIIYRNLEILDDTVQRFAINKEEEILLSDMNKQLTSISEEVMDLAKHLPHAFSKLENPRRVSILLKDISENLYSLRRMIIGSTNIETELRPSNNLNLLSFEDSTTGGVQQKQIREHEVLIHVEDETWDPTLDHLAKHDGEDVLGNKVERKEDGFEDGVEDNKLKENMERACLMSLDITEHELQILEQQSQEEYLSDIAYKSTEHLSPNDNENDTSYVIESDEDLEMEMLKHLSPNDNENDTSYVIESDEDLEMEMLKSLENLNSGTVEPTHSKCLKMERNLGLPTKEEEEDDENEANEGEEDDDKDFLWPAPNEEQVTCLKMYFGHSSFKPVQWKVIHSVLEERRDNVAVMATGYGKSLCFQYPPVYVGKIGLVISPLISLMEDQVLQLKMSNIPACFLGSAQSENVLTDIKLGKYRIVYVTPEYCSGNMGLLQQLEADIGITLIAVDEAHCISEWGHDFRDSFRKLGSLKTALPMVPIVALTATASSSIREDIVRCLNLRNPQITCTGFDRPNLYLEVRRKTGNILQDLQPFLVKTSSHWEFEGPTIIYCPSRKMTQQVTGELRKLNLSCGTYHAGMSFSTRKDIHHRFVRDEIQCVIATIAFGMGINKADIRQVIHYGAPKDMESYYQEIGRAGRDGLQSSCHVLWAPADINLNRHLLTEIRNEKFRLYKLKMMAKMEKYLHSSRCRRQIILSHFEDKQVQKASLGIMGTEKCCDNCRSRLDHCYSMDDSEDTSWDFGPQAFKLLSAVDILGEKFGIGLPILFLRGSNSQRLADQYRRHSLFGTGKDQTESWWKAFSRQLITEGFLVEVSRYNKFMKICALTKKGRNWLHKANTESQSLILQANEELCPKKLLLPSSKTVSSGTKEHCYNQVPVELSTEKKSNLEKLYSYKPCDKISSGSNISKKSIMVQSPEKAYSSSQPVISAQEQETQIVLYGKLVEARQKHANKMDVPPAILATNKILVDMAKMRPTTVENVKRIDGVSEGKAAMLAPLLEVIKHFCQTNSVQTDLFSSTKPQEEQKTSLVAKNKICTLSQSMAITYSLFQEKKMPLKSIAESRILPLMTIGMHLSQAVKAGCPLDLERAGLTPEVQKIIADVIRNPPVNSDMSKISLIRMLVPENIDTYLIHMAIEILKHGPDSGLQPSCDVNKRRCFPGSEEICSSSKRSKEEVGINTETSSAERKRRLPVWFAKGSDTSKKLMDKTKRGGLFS
# Screen size: about 360,000 compounds; about 1,700 (0.47%) were called active. The shares of active, inactive and inconclusive entries below differ from those in the screen. Calls come from the whole dose curve; as a rule, active = well fitted inhibition curve with a large enough effect; inconclusive = small, poorly fitted or top-dose-only effect; inactive = no such curve, though single readings can be large or run the other way. Potencies of inconclusive entries are doubtful fits and often do not repeat.
# Target: Bifunctional 3'-5' exonuclease/ATP-dependent helicase WRN (Homo sapiens) (UniProt Q14191)
# Test: qHTS for Inhibitors of WRN Helicase; note: nearly all actives have a fitted effect of over 55% in size
# Settings: WRN helicase unwinding, fluorescent forked duplex, kinetic; activity change, negative = inhibition: at 114 µM (top of the series) unless noted
# In short: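 WRN at 20 nM final preincubated with compound 15 min at room temperature; reaction started with 100 nM fluorophore/quencher forked duplex oligonucleotide and 2 mM ATP final. Unwinding followed kinetically by red fluorescence (ex 525, em 598 nm).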
# % is set by controls: 0 for no effect and ±100 for the full control effect; potency is the fitted concentration of half-maximal effect.
SMILES,Potency,"activity change, negative = inhibition"
CCc1cc(C(=O)N2CCCC(Nc3ccc(F)c(F)c3)C2)n(C)n1 (stereo not drawn),"inconclusive: 89.1 µM [inhibitor, single point]",
CCc1nnc(NS(=O)(=O)c2ccc(N/C=C\C(=O)c3cccc4ccccc34)cc2)s1,active: 26.7 µM,
CC(=O)Oc1cccc(/C=c2\sc3nc(-c4ccco4)nn3c2=O)c1,"inconclusive: 100 µM [inhibitor, partial curve]",
CC(C)N1C(=O)/C(=C\c2nc3ccccc3c(=O)[nH]2)c2ccccc21,"inconclusive: 20 µM [inhibitor, single point]",
O=C(O)c1cc(-c2c[nH]c3ccccc23)nc2ccc3ccccc3c12,"inconclusive: 39.8 µM [inhibitor, single point]",
Cc1cc(C)n2c(SCC(O)=C(C#N)c3nc4ccccc4[nH]3)nnc2n1,,inconclusive: -50.5% [inhibitor]
CCOc1ccccc1-c1c2cc(O)c(=O)cc-2oc2cc(O)c(O)cc12,active: 89.1 µM,
COc1ccc(OC)c(S(=O)(=O)Nc2ccc(O)c(Sc3ncn[nH]3)c2)c1,"inconclusive: 56.2 µM [inhibitor, partial curve]",
Cc1c(NC(=O)/C(C#N)=C/c2ccc(-c3cc(Cl)ccc3Cl)o2)c(=O)n(-c2ccccc2)n1C,"inconclusive: 11.2 µM [inhibitor, partial curve, poor fit]",
O=c1cc(O)c2sc3nc(-c4cccnc4)cc(C(F)(F)F)c3c2[nH]1,"inconclusive: 44.7 µM [inhibitor, partial curve]",
Cc1nc2nc(SCC(=O)NCc3ccco3)nn2c(C)c1Cc1ccccc1,"inconclusive: 44.7 µM [inhibitor, partial curve]",
NC(=S)N/N=C/c1coc2ccc(O)cc2c1=O,inactive,
COc1ccc(-n2cccc2/C=C2\C(=N)N3N=C(c4ccco4)SC3=NC2=O)cc1,"inconclusive: 12.6 µM [inhibitor, partial curve]",
O=[N+]([O-])/C(C(Cl)=C(Cl)Cl)=C1\Nc2ccccc2O1,"inconclusive: 28.2 µM [inhibitor, full curve]",
Cc1ccccc1NC(=O)c1cc(-c2ccco2)nc2ccccc12,"inconclusive: 79.4 µM [inhibitor, partial curve]",
CC(=O)c1ccc(NC(=O)CCc2nc3sc4c(c3c(=O)[nH]2)CCCC4)cc1,"inconclusive: 50.1 µM [inhibitor, partial curve]",
O=C1N=c2ccccc2=C1c1c(O)[nH]c2c(C(F)(F)F)cccc12,inactive,
O=[N+]([O-])c1ccc(O)c(-c2nn[nH]n2)c1,active: 79.4 µM,

# 2 records drawn at random from the list so far:
SMILES,Potency,"activity change, negative = inhibition"
Cc1ccccc1NC(=O)c1cc(-c2ccco2)nc2ccccc12,"inconclusive: 79.4 µM [inhibitor, partial curve]",
CCc1nnc(NS(=O)(=O)c2ccc(N/C=C\C(=O)c3cccc4ccccc34)cc2)s1,active: 26.7 µM,
